Results on 1 substance are retold here after PMC12390678.

Amino acid sequences for entries named in this document (tags omitted). Residues count along the entry.
UniProt Q8N122: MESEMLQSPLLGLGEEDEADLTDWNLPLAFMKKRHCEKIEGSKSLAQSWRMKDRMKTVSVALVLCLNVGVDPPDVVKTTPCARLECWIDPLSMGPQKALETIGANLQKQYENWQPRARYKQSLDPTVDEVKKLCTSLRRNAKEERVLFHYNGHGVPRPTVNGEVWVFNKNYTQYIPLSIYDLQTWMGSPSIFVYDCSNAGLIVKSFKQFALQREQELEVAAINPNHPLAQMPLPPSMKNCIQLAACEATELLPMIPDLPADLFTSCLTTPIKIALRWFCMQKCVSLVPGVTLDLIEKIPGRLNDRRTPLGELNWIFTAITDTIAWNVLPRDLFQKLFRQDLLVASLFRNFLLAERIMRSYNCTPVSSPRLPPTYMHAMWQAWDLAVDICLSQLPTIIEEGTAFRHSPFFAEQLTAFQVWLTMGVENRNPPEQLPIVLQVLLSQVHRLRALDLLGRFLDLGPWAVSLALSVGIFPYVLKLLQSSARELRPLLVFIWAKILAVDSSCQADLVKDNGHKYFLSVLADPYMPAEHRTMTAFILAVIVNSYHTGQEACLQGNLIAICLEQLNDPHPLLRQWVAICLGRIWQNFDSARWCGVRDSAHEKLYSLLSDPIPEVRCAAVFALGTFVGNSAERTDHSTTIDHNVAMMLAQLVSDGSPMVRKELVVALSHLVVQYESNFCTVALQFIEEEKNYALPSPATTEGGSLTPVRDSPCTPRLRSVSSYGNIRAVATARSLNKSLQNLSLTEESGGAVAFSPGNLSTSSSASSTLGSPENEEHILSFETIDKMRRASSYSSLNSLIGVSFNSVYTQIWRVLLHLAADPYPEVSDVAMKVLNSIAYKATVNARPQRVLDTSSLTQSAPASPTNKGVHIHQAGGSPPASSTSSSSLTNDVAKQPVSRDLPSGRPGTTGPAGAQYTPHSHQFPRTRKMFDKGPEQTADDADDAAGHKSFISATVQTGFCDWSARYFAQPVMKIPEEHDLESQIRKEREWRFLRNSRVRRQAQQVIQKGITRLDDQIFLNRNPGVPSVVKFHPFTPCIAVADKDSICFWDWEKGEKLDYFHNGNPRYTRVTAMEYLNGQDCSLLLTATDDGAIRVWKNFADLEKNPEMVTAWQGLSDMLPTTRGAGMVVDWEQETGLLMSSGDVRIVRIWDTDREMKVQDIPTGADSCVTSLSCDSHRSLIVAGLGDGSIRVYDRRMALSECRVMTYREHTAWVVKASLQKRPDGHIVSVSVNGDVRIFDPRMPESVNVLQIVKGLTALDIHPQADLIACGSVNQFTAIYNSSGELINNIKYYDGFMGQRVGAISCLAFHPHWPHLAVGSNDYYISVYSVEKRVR
UniProt P03186, residues 1-246: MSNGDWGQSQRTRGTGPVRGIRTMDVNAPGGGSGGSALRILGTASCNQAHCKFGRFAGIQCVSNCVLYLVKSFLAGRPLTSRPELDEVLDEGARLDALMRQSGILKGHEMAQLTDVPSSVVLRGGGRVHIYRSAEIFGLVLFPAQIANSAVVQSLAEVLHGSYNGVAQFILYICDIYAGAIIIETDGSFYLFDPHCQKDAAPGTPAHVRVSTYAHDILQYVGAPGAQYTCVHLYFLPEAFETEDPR

In this assay the target is myc-Raptor (UniProt Q8N122). Nature of the assay: co-IP.

These are yes or no findings as the source states them, for the method shown. Binding seen in cells or lysates may run through a third protein. Some entries that bind do so weakly or less than the wild type.

“Flag-tagged BPLF1 1-246 (from UniProt P03186 1-246) (domain or fragment)”: the binding result is listed as “binds”.
